Laboratory results taken from US6107275A (Merrell Pharmaceuticals Inc., priority 1997, dated 2000).

Assay: general procedure: Boc solid-phase peptide synthesis; oxime resin
Details: whole synthesis, CF3CO2H (TFA) salt

Substance: Cyclo[Ala.PSI.[CH2 NH]-Arg(N^g -Tos)-Gly-Asp(β-Chxl)-δ-Glu](α-NHBn)
- crude mass: 269 mg
- crude yield (scale of the general procedure 0.5 mmol): 68%
